According to the supplement of paper PMC8728848:
The other results are listed elsewhere or left out.

Assays:
Assay in all cases: glycan array binding signal (z-score within array); higher = stronger binding
Details in all cases: glycan notation: IUPAC condensed, linker removed
Glc(b1-6)Glc = biological target: Glc(b1-6)Glc
Summary of the method: (§1)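 Arrays were curated from the Consortium for Functional Glycomics database, 3228 in total, and kept only where the protein sequence was available. Binding is expressed as a within-array Z-score. This score was averaged across arrays of the same protein sequence at different concentrations or buffers and across linkers, and negative values can be read as non-binding.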

GlcA(b1-3)Gal = biological target: GlcA(b1-3)Gal
Summary of the method: as §1

GlcA(b1-3)GlcNAc = biological target: GlcA(b1-3)GlcNAc
Summary of the method: as §1

GlcA(b1-6)Gal = biological target: GlcA(b1-6)Gal
Summary of the method: as §1

[1] = biological target: GlcA3S(b1-3)Gal(b1-4)GlcNAc(b1-2)Man
Summary of the method: as §1

[2] = biological target: GlcA3S(b1-3)Gal(b1-4)GlcNAc(b1-3)Gal(b1-4)Glc
Summary of the method: as §1

[3] = biological target: GlcNAc(a1-3)Gal(b1-4)GlcNAc
Summary of the method: as §1

[4] = biological target: GlcNAc(a1-4)Gal(b1-3)GlcNAc
Summary of the method: as §1

[5] = biological target: GlcNAc(a1-4)Gal(b1-4)GalNAc
Summary of the method: as §1

[6] = biological target: GlcNAc(a1-4)Gal(b1-4)GlcNAc
Summary of the method: as §1

[7] = biological target: GlcNAc(a1-4)Gal(b1-4)GlcNAc(b1-3)Gal(b1-4)Glc
Summary of the method: as §1

[8] = biological target: GlcNAc(a1-4)Gal(b1-4)GlcNAc(b1-3)Gal(b1-4)GlcNAc
Summary of the method: as §1

[9] = biological target: GlcNAc(a1-4)Gal(b1-4)GlcNAc(b1-3)Gal(b1-4)GlcNAc(b1-3)Gal(b1-4)GlcNAc
Summary of the method: as §1

[10] = biological target: GlcNAc(a1-4)Gal(b1-4)GlcNAc(b1-3)Gal(b1-4)[Fuc(a1-3)]GlcNAc(b1-3)Gal(b1-4)[Fuc(a1-3)]GlcNAc
Summary of the method: as §1

[11] = biological target: GlcNAc(a1-6)Gal(b1-4)GlcNAc
Summary of the method: as §1

[12] = biological target: GlcNAc(b1-2)Gal(b1-3)GalNAc
Summary of the method: as §1

[13] = biological target: GlcNAc(b1-2)Man(a1-3)[GlcNAc(b1-2)Man(a1-6)]Man(b1-4)GlcNAc(b1-4)GlcNAc
Summary of the method: as §1

[14] = biological target: GlcNAc(b1-2)Man(a1-3)[GlcNAc(b1-2)Man(a1-6)]Man(b1-4)GlcNAc(b1-4)[Fuc(a1-6)]GlcNAc
Summary of the method: as §1

[15] = biological target: GlcNAc(b1-2)Man(a1-3)[GlcNAc(b1-4)][GlcNAc(b1-2)Man(a1-6)]Man(b1-4)GlcNAc(b1-4)GlcNAc
Summary of the method: as §1

[16] = biological target: GlcNAc(b1-2)Man(a1-3)[GlcNAc(b1-4)][GlcNAc(b1-2)Man(a1-6)]Man(b1-4)GlcNAc(b1-4)[Fuc(a1-6)]GlcNAc
Summary of the method: as §1

[17] = biological target: GlcNAc(b1-2)[GlcNAc(b1-4)]Man(a1-3)[GlcNAc(b1-2)Man(a1-6)]Man(b1-4)GlcNAc(b1-4)GlcNAc
Summary of the method: as §1

[18] = biological target: GlcNAc(b1-2)[GlcNAc(b1-4)]Man(a1-3)[GlcNAc(b1-4)][GlcNAc(b1-2)Man(a1-6)]Man(b1-4)GlcNAc(b1-4)GlcNAc
Summary of the method: as §1

B1: FimA-N2 (Actinomyces oris) (protein)
chain: MHHHHHHSSGVDLGTENLYFQSNAWIYDVNVYPKNEAIDVDKTIQAQKLNGYGVGSLIKFPVESTAPTLDAKSFYKYFQLKDTLDERLSEVTATDVSLEGTPLQPTDYKVETKQQTVTVTFTAEGLKKIKAAPGKKVSAVFQGKVTKAGNGAITNRAQVISDTLYAEQPPTPETPPTDPENPPTSDEVISRWGDLSIKKVDTHQQGQTKA
glycan array binding signal (z-score) (Glc(b1-6)Glc): 1.14
glycan array binding signal (z-score) (GlcA(b1-3)Gal): 1.18
glycan array binding signal (z-score) (GlcA(b1-3)GlcNAc): 0.654
glycan array binding signal (z-score) (GlcA(b1-6)Gal): -0.409
glycan array binding signal (z-score) [1]: 1.93
glycan array binding signal (z-score) [2]: 0.823
glycan array binding signal (z-score) [3]: 0.476
glycan array binding signal (z-score) [4]: -1.05
glycan array binding signal (z-score) [5]: -0.936
glycan array binding signal (z-score) [6]: -0.453
glycan array binding signal (z-score) [7]: 1.3
glycan array binding signal (z-score) [8]: -1.07
glycan array binding signal (z-score) [9]: -0.394
glycan array binding signal (z-score) [10]: 1.2
glycan array binding signal (z-score) [11]: -0.598
glycan array binding signal (z-score) [12]: -0.039
glycan array binding signal (z-score) [13]: -0.426
glycan array binding signal (z-score) [14]: 0.635
glycan array binding signal (z-score) [15]: -0.61
glycan array binding signal (z-score) [16]: 0.09
glycan array binding signal (z-score) [17]: -0.263
glycan array binding signal (z-score) [18]: -0.99
